The source of these data is patent US20050053985A1.

By UniProt entry, the sequences of proteins in these tests, tags left out.
UniProt Q8NCE0: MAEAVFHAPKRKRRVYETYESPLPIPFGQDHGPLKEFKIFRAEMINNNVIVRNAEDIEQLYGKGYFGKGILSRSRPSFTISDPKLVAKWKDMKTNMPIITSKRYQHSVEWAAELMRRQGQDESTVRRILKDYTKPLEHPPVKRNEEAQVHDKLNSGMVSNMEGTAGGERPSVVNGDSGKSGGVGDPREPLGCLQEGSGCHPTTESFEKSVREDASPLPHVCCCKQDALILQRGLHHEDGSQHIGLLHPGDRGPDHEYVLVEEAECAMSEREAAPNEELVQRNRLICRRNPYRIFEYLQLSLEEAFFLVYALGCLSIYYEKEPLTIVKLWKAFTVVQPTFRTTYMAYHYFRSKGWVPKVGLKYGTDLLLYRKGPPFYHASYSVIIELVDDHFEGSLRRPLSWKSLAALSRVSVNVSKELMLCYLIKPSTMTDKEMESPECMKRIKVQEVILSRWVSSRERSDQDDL

These are yes or no findings as the source states them, for the method shown. Binding seen in cells or lysates may run through a third protein. These calls come from enrichment with a bait or labelling near it, and not all partners need be listed.

The target of one assay is T1, HsClp1 (human) (UniProt Q92989).
T1 sequence (looked up): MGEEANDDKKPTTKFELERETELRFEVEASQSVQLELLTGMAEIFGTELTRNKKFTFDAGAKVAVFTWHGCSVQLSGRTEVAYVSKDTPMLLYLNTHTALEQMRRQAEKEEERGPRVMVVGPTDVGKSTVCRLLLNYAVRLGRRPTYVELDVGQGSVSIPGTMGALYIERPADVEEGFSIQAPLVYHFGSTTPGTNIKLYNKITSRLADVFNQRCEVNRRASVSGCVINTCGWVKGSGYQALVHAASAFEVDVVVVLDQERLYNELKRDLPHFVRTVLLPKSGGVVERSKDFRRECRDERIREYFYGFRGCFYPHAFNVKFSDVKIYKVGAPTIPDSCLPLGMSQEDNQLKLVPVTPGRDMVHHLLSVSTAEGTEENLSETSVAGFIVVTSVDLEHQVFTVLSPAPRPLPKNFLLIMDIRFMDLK
The experiment in a line: co-purification (anti-Flag then Ni beads), SDS-PAGE, silver staining, mass spectrometry.

In another assay the target is T2, HsSen54 (human) (UniProt Q7Z6J9).
T2 sequence (looked up): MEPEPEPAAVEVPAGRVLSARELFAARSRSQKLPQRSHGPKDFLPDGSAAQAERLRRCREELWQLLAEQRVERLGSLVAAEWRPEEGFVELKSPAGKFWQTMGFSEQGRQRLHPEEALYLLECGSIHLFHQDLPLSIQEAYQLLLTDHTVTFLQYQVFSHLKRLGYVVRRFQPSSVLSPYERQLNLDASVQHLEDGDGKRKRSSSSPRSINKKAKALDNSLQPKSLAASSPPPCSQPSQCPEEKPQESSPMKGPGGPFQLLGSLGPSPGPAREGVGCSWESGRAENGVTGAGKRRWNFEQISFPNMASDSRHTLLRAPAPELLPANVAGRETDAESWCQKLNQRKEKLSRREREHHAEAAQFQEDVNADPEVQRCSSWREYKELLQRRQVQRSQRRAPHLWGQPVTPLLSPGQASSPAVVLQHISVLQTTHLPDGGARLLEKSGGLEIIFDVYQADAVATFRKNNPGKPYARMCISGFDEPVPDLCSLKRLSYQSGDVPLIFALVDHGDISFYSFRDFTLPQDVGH
The description is as above.

In the case of “His-Flag-HsSen2 (from UniProt Q8NCE0 1-465)”, the binding entry in the assay with HsClp1 (human) and with HsSen54 (human) was “binds” each time.
